Experimental data: PubChem BioAssay AID1259254 (NCATS, 2017)
Here is an unselected part of about 59,000 deposited reagents. Over the whole deposit, about 1,550 (2.6%) were called active. 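G2 share is only a proxy for re-replication; each gene was hit by three separate siRNAs, and active genes were retested.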 Entries without a mark were called inactive. The numbers tell different reagents against one gene apart. Not all columns of the deposit are shown. Not given: the amount of reagent.

Assay: 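Gene knock-downs that lead to re-replication, shown by excess G2 DNA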 (primary screen)
Cells: human HCT116 colorectal cancer cells
Reagent: single siRNA against human genes
Timing: 3 days
Measurement: 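Imaged Hoechst DNA stain sorts each cell into a cycle phase by DNA amount; per plate, G2 fraction set to 0% for non-targeting and 100% for GMNN siRNA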
Scale: G2 robust z-score: higher = more G2 cells, more excess DNA replication
Rule for the call: 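An siRNA counts as active if its G2 robust z-score lies at least 5 MADs above the screen median; here such calls match roughly 38% of GMNN control or more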

| gene knocked down | reagent no. | G2 robust z-score |
| --- | --- | --- |
| CX3CR1 (GeneID 1524) | 1 | 0.52 |
| CX3CR1 (GeneID 1524) | 2 | 2.22 |
| CX3CR1 (GeneID 1524) | 3 | 0.129 |
| PEX3 (GeneID 8504) | 1 | -1.25 |
| PEX3 (GeneID 8504) | 2 | 0.795 |
| PEX3 (GeneID 8504) | 3 | 0.538 |
| RPL35A (GeneID 6165) | 1 | 6.23 (active) |
| RPL35A (GeneID 6165) | 2 | 3.11 |
| RPL35A (GeneID 6165) | 3 | 3.7 |
| OR52J3 (GeneID 119679) | 1 | -0.418 |
| OR52J3 (GeneID 119679) | 2 | -0.655 |
| OR52J3 (GeneID 119679) | 3 | -0.191 |
| EPHB3 (GeneID 2049) | 1 | -0.65 |
| EPHB3 (GeneID 2049) | 2 | -0.886 |
| EPHB3 (GeneID 2049) | 3 | -0.777 |
| ADPGK (GeneID 83440) | 1 | 1.03 |
| ADPGK (GeneID 83440) | 2 | -0.472 |
| ADPGK (GeneID 83440) | 3 | 0.68 |
| RAB11FIP5 (GeneID 26056) | 1 | -0.781 |
| RAB11FIP5 (GeneID 26056) | 2 | -0.671 |
| RAB11FIP5 (GeneID 26056) | 3 | -0.98 |
| PEPD (GeneID 5184) | 1 | -0.435 |
| PEPD (GeneID 5184) | 2 | 1.14 |
| PEPD (GeneID 5184) | 3 | 0.685 |
| TMPRSS11F (GeneID 389208) | 1 | -0.344 |
| TMPRSS11F (GeneID 389208) | 2 | 1.4 |
| TMPRSS11F (GeneID 389208) | 3 | -0.573 |
| FAM168B (GeneID 130074) | 1 | 0.031 |
| FAM168B (GeneID 130074) | 2 | 0.703 |
| FAM168B (GeneID 130074) | 3 | 1.39 |
| PCNA (GeneID 5111) | 1 | 0.0976 |
| PCNA (GeneID 5111) | 2 | -0.98 |
| PCNA (GeneID 5111) | 3 | 1.1 |
| ERICH1 (GeneID 157697) | 1 | 0.965 |
| ERICH1 (GeneID 157697) | 2 | 2.59 |
| ERICH1 (GeneID 157697) | 3 | -0.574 |
| TOPBP1 (GeneID 11073) | 1 | 2.27 |
| TOPBP1 (GeneID 11073) | 2 | -0.646 |
| TOPBP1 (GeneID 11073) | 3 | -0.741 |
| MT3 (GeneID 4504) | 1 | -0.0515 |
| MT3 (GeneID 4504) | 2 | 0.324 |
| MT3 (GeneID 4504) | 3 | 1.92 |
| MAP2K2 (GeneID 5605) | 1 | -0.686 |
| MAP2K2 (GeneID 5605) | 2 | -1.76 |
| MAP2K2 (GeneID 5605) | 3 | -0.182 |
| FOLR1 (GeneID 2348) | 1 | 1.34 |
| FOLR1 (GeneID 2348) | 2 | 0.132 |
| FOLR1 (GeneID 2348) | 3 | 7.01 (active) |
| CLEC1B (GeneID 51266) | 1 | 1.12 |
| CLEC1B (GeneID 51266) | 2 | 1.11 |
| CLEC1B (GeneID 51266) | 3 | 0.189 |
| MTMR3 (GeneID 8897) | 1 | 1.71 |
| MTMR3 (GeneID 8897) | 2 | 0.324 |
| MTMR3 (GeneID 8897) | 3 | -0.613 |
| ANKRD22 (GeneID 118932) | 1 | 2.31 |
| ANKRD22 (GeneID 118932) | 2 | 0.117 |
| ANKRD22 (GeneID 118932) | 3 | -0.108 |
| MIS18BP1 (GeneID 55320) | 1 | 0.699 |
| MIS18BP1 (GeneID 55320) | 2 | -0.0713 |
| MIS18BP1 (GeneID 55320) | 3 | -0.262 |
| RDH16 (GeneID 8608) | 1 | -0.684 |
| RDH16 (GeneID 8608) | 2 | 7.01 (active) |
| RDH16 (GeneID 8608) | 3 | -1.23 |
| MGC70870 (GeneID 403340) | 1 | 0.0851 |
| MGC70870 (GeneID 403340) | 2 | 0.00521 |
| MGC70870 (GeneID 403340) | 3 | 1.8 |
| TTC22 (GeneID 55001) | 1 | -0.106 |
| TTC22 (GeneID 55001) | 2 | -0.615 |
| TTC22 (GeneID 55001) | 3 | 1.77 |

In a second layout: 9 of the entries above.
TOPBP1 (GeneID 11073) #1
- G2 robust z-score: 2.27

TOPBP1 (GeneID 11073) #2
- G2 robust z-score: -0.646

TOPBP1 (GeneID 11073) #3
- G2 robust z-score: -0.741

MT3 (GeneID 4504) #1
- G2 robust z-score: -0.0515

MT3 (GeneID 4504) #2
- G2 robust z-score: 0.324

MT3 (GeneID 4504) #3
- G2 robust z-score: 1.92

MAP2K2 (GeneID 5605) #1
- G2 robust z-score: -0.686

MAP2K2 (GeneID 5605) #2
- G2 robust z-score: -1.76

MAP2K2 (GeneID 5605) #3
- G2 robust z-score: -0.182
